No constants are given. Whether binding was seen depends on the method and setting. In cells and extracts the contact can be indirect. These calls come from enrichment with a bait or labelling near it, and not all partners need be listed.
Molecular target: HopF2-BirA*-FLAG-HA (Pseudomonas syringae) (UniProt Q88A90)
Assay: proximity labelling; BioID in leaves of transgenic Arabidopsis expressing HopF2-BirA*-FLAG-HA; 2 mM biotin infiltrated, 30 uM dexamethasone 24 h at 25 °C; streptavidin sepharose purification of combined soluble and insoluble fractions, on-bead digestion, LC-MS/MS; SAINT against Col-0, BFDR ≤ 0.01; preys significant with HopF2-BirA* but not with BirA* alone

Amino acid sequences for entries named in this document (tags omitted).
UniProt Q88A90: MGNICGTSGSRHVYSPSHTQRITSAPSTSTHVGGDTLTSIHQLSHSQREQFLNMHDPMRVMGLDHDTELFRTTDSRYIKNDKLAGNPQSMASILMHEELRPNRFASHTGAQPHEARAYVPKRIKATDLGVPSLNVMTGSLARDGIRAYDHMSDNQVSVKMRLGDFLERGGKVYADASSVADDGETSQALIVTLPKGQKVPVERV

B1: STP1 (protein, UniProt P23586 1-522)
chain: MPAGGFVVGDGQKAYPGKLTPFVLFTCVVAAMGGLIFGYDIGISGGVTSMPSFLKRFFPSVYRKQQEDASTNQYCQYDSPTLTMFTSSLYLAALISSLVASTVTRKFGRRLSMLFGGILFCAGALINGFAKHVWMLIVGRILLGFGIGFANQAVPLYLSEMAPYKYRGALNIGFQLSITIGILVAEVLNYFFAKIKGGWGWRLSLGGAVVPALIITIGSLVLPDTPNSMIERGQHEEAKTKLRRIRGVDDVSQEFDDLVAASKESQSIEHPWRNLLRRKYRPHLTMAVMIPFFQQLTGINVIMFYAPVLFNTIGFTTDASLMSAVVTGSVNVAATLVSIYGVDRWGRRFLFLEGGTQMLICQAVVAACIGAKFGVDGTPGELPKWYAIVVVTFICIYVAGFAWSWGPLGWLVPSEIFPLEIRSAAQSITVSVNMIFTFIIAQIFLTMLCHLKFGLFLVFAFFVVVMSIFVYIFLPETKGIPIEEMGQVWRSHWYWSRFVEDGEYGNALEMGKNSNQAGTKHV
In the case of B1, the binding is reported as “binds”.

B2: RIN4 (protein, UniProt Q8GYN5 1-211)
chain: MARSNVPKFGNWEAEENVPYTAYFDKARKTRAPGSKIMNPNDPEYNSDSQSQAPPHPPSSRTKPEQVDTVRRSREHMRSREESELKQFGDAGGSSNEAANKRQGRASQNNSYDNKSPLHKNSYDGTGKSRPKPTNLRADESPEKVTVVPKFGDWDENNPSSADGYTHIFNKVREERSSGANVSGSSRTPTHQSSRNPNNTSSCCCFGFGGK
B2 was tested, and the binding was “binds”.

From publication PMC6004002
